In paper PMC6349854, “GLUT1 and GLUT3 involvement in anthocyanin gastric transport- Nanobased targeted approach” (Scientific Reports, 2019):

System: Mv3glc transport through MKN-28 barrier
Assay: Effect of transporter inhibitors on anthocyanin transport through MKN-28 barrier
Type: cell-based, human
Conditions: inhibitor 50 µM; apical pH 5.0, basolateral pH 7.4
Procedure: Transepithelial transport experiments were performed using a similar procedure from the one described elsewhere. […] Cells were cultured at 37 °C in an atmosphere of 5% CO2 and the medium was changed every two days.
After this treatment, media was removed and cells were washed with Hanks’ medium (HBSS), pH 7.4 at the basolateral side and with HBSS pH 5.0 at the apical side. Anthocyanin solution (500 µM) in HBSS pH 5.0 was added to the apical side of the cells and HBSS containing 2% fetal bovine serum free of polyphenols was added to the basolateral compartment. Transepithelial transport was followed as a function of time, at 4 °C and 37 °C. Samples were taken from the basolateral side and replaced by fresh medium. The samples (150 µL) were acidified with HCl 6 M to a final concentration of 1% and frozen at −18 °C until HPLC analysis.

CN1[C@@H]2CC[C@H]1C[C@@H](OC(=O)C(CO)c1ccccc1)C2 (stereo partly shown) [Atropin]
effect on Mv3glc transport: reduce the amount of Mv3glc detected in the basolateral side
